No constants are given. Whether binding was seen depends on the method and setting. In cells and extracts the contact can be indirect. These calls come from enrichment with a bait or labelling near it, and not all partners need be listed. Tags and fused reporters may be left off the sequences shown.
target: native lamin A/C (mouse (endogenous in heart, skeletal muscle and brain)) (UniProt P48678); experiment: affinity purification with mass spectrometry; native lamin A/C immunoprecipitated with mAb 4C11 and Protein G Sepharose from sonicated heart lysates of old IL10-KO and control C57Bl/6 female mice (five each); 50 mM Tris pH 7.4, 300 mM NaCl, 0.3% Triton X-100, 4°C; TMT 10-plex

By UniProt entry, the sequences of proteins in these tests, tags left out. Residues count along the entry.
UniProt P48678, residues 1-647: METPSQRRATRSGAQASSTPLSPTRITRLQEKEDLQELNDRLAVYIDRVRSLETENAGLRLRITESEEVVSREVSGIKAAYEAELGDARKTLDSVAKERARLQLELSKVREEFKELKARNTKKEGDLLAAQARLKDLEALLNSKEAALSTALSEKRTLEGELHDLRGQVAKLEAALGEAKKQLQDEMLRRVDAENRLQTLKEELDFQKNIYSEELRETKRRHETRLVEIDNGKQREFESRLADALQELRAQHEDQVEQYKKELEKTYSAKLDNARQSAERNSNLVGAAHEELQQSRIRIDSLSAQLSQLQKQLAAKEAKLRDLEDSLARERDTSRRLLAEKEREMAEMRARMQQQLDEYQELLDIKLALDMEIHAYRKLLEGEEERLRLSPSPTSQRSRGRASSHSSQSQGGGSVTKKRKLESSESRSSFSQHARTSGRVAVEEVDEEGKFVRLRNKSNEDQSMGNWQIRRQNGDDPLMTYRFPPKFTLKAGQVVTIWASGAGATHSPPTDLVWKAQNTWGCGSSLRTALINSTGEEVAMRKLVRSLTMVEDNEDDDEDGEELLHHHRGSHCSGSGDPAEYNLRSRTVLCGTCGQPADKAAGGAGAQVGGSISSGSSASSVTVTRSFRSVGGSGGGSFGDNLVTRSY

| binding | Binder |
| --- | --- |
| binds | Sun2 (protein, UniProt Q8BJS4 1-731) MSRRSQRLTRYSQDDNDGGSSSSGASSVAGSQGTVFKDSPLRTLKRKSSNMKHLSPAPQLGPSSDSHTSYYSESVVRESYIGSPRAVSLARSALLDDHLHSEPYWSGDLRGRRRRGTGGSESSKANGLTAESKASEDFFGSSSGYSSEDDLAGYTDSDQHSSGSRLRSAASRAGSFVWTLVTFPGRLFGLLYWWIGTTWYRLTTAASLLDVFVLTRSRHFSLNLKSFLWFLLLLLLLTGLTYGAWHFYPLGLQTLQPAVVSWWAAKESRKQPEVWESRDASQHFQAEQRVLSRVHSLERRLEALAADFSSNWQKEAIRLERLELRQGAAGHGGGSSLSHEDALSLLEGLVSRREATLKEDLRRDTVAHIQEELATLRAEHHQDSEDLFKKIVQASQESEARVQQLKTEWKSMTQEAFQESSVKELGRLEAQLASLRQELAALTLKQNSVADEVGLLPQKIQAARADVESQFPDWIRQFLLGDRGARSGLLQRDEMHAQLQELENKILTKMAEMQGKSAREAAASLGQILQKEGIVGVTEEQVHRIVKQALQRYSEDRIGMVDYALESGGASVISTRCSETYETKTALLSLFGIPLWYHSQSPRVILQPDVHPGNCWAFQGPQGFAVVRLSARIRPTAVTLEHVPKALSPNSTISSAPKDFAIFGFDEDLQQEGTLLGTFAYDQDGEPIQTFYFQASKMATYQVVELRILTNWGHPEYTCIYRFRVHGEPAH |
| binds | Protein NDRG2 (N-myc downstream-regulated gene 2) (protein, UniProt Q9QYG0 1-371) MAELQEVQITEEKPLLPGQTPETAKEAELAARILLDQGQTHSVETPYGSVTFTVYGTPKPKRPAIFTYHDVGLNYKSCFQPLFRFGDMQEIIQNFVRVHVDAPGMEEGAPVFPLGYQYPSLDQLADMIPCILQYLNFSTIIGVGVGAGAYILSRYALNHPDTVEGLVLINIDPNAKGWMDWAAHKLTGLTSSIPDMILGHLFSQEELSGNSELIQKYRGIIQHAPNLENIELYWNSYNNRRDLNFERGGETTLKCPVMLVVGDQAPHEDAVVECNSKLDPTQTSFLKMADSGGQPQLTQPGKLTEAFKYFLQGMGYMASSCMTRLSRSRTASLTSAASIDGSRSRSRTLSQSSESGTLPSGPPGHTMEVSC |
| binds | Ser/Thr-protein kinase TAO1 (protein, UniProt Q5F2E8 1-1001) MPSTNRAGSLKDPEIAELFFKEDPEKLFTDLREIGHGSFGAVYFARDVRTNEVVAIKKMSYSGKQSTEKWQDIIKEVKFLQRIKHPNSIEYKGCYLREHTAWLVMEYCLGSASDLLEVHKKPLQEVEIAAITHGALQGLAYLHSHTMIHRDIKAGNILLTEPGQVKLADFGSASMASPANSFVGTPYWMAPEVILAMDEGQYDGKVDVWSLGITCIELAERKPPLFNMNAMSALYHIAQNESPTLQSNEWSDYFRNFVDSCLQKIPQDRPTSEELLKHMFVLRERPETVLIDLIQRTKDAVRELDNLQYRKMKKLLFQEAHNGPAVEAQEEEEEQDHGVGRTGTVNSVGSNQSIPSMSISASSQSSSVNSLPDASDDKSELDMMEGDHTVMSNSSVIHLKPEEENYQEEGDPRTRASDPQSPPQVSRHKSHYRNREHFATIRTASLVTRQMQEHEQDSELREQMSGYKRMRRQHQKQLMTLENKLKAEMDEHRLRLDKDLETQRNNFAAEMEKLIKKHQAAMEKEAKVMANEEKKFQQHIQAQQKKELNSFLESQKREYKLRKEQLKEELNENQSTPKKEKQEWLSKQKENIQHFQAEEEANLLRRQRQYLELECRRFKRRMLLGRHNLEQDLVREELNKRQTQKDLEHAMLLRQHESMQELEFRHLNTIQKMRCELIRLQHQTELTNQLEYNKRRERELRRKHVMEVRQQPKSLKSKELQIKKQFQDTCKIQTRQYKALRNHLLETTPKSEHKAVLKRLKEEQTRKLAILAEQYDHSINEMLSTQALRLDEAQEAECQVLKMQLQQELELLNAYQSKIKMQAEAQHDRELRELEQRVSLRRALLEQKIEEEMLALQNERTERIRSLLERQAREIEAFDSESMRLGFSNMVLSNLSPEAFSHSYPGASSWSHNPTGGPGPHWGHPMGGTPQAWGHPMQGGPQPWGHPSGPMQGVPRGSSMGVRNSPQALRRTASGGRTEQGMSRSTSVTSQISNGSHMSYT |

The remaining lines, values behind:

| Binder | binding |
| --- | --- |
| MLIP (protein, UniProt Q5FW52 1-967) MTSCILAGSLETTPKVSPGDPEAKPLIFTFVPTLRRLPTHIQLADTSKFLVKIPEEPTDKSPETVNRFEYSDHMTFSSESKQERVQRILDYPSEVSGRNSQQKEFNTKEPQGMQKGDLFKAEYVFIVDSDGEDEATCRQGEQGPPGGPGNIATRPKSLAISSSLASDVVRPKVRGADLKTSSHPEIPHGIAPQQKHGLLISPTTSEQLAHKPPAFSFVSPTNQKTPPVPANVSGATVLREFHTRRLDVTGASEEETTTYFHSTAHDSPLSAWKGASTLVVSPSAQLSGSSLCGSNVTDHTRGLASEAQKKMSTSNVLNPKEDVRTCPAPASGASLTSPSASYIPVRIVMHSLSPSPKPLTSSSHGSLSTVCSQMSSSGSLSKSGLKSPVPSRLSLLTAILKSNPSHQRPLSPASCPTFSLNSLASSTLALDQKVKQTPPTSKKSLSSGSLTTGSTEQEHQASAASYQPCHLPFFSKTTPLSQAQPLSPLALASNSCASMDIEKIPGSTLRSNTTSPQPQTDTFSLADVPSVTPVLSPLSSSKGRKDGDSRTPEKNRNICIQPSTLASTPPVDESLALSSSGKGFHPSPALSDLIDRSKRACSQQHPGQRPSPSALPTPPVSRAASASHPHLGCSILPLQSSLTQTLQPSPSALRPSCGSATCPSRTQMPENTASNHSSRVSTPSLPVSLTRTKELFSPCALSMSAGPENKKPKQYKTMSSYKAFAAIPTNTLLLEQKALDEPARTESNSKASVLDLPVEFCFPAQLRQQTEELCATIDKVLQDSLSMHSSDSPSRPPQTMLGSETIKTPTTHPRAAGRETKYANLSSSSSTASESQLTKPGVIRPVPVKSKLLLRKDEEVYEPNPFSKYLEDNSGLFSEQDMAIPHKPVSLHPLYQSKLYPPAKSLLHPQTLSHADCLTPGSFSHLSSFSVRDEQEKSPTLLSQDTYNKLGHPMVTIPEHDTLDSKE | binds |
| Kank2 (protein, UniProt Q8BX02 1-843) MAQVLHVPAPFPGTPGQASPAAFPSKEPDPPYSVETPYGYRLDLDFLKYVDDIEKGHTLRRVAVQRRPRLGSLPRGPGSWWTSTESLCSDASGDSRHSAYSYCGRGFYPQYGALETRIGSNPRVERTLLDARRRLEDQAAAPSSGGLGSLTPSAAGSTSSLAGVGLLPPTPRSSGLSTPVAPSAGHLAHVREQMAGALRKLRQLEEQVKLIPVLQVKLSVLQEEKRQLTVQLKSQKFLGHPSGTRSRSELCLDLPEAPDDPAALETRSVGTWVRERDLGIPDGEAALVAKVAVLETQLKKALQELRAAQTQQVDLQPQAWPPPDTQVRVDTVRVVEGPREVEVAASTAAGALAQRAQSLEPYGTGLKALTTSGGPENTLVFRSHEVVETMCPLPTATTGNVHTAKKISITERSCTGAPRMTEPSSVNPRPAAASVVQPENPVPAAQDTTDKKPTRPAAASQDSQAADGAGRASLATKRKEDPADPEVNQRNLQFVGVNGGYESPSEDSSTAENSEHESTENEGPEPPARVLSPAECPQLRPPGAAVATTSLEGPQLSQESQRVPAPEVASGPDPEEEIRMDLSPDLISACLALEKYLENPNALTERELKVAYTTVLQEWLRLACRSDAHPELVRRHLVTFRAMSARLLDYVVNIADSNGNTALHYSVSHANFPVVRQLLDSGVCHVDKLNRAGYSPIMLTALATLKTQDDIETILQLFRLGNVNAKASQAGQTALMLAVSHGRVDVVRALLACEADVNIQDEDGSTALMCACEHGHKEITGLLLAVPSCDISLTDRDGSTALMVALDAGQSEIASMLYSRMNIKCSFAPMSDYESPASSSAEE | binds |
| Plcb4 (protein, UniProt Q91UZ1 1-1175) MAKPYEFNWQKEVPSFLQEGAVFDRYEEESFVFEPNCLFKVDEFGFFLTWKSEGKEGQVLECSLINSIRQAAIPKDPKILAALEAVGKSENDLEGRILCVCSGTDLVNIGFTYMVAENPEVTKQWVEGLRSIIHNFRANNVSPMTCLKKHWMKLAFLTNTTGKIPVRSITRTFASGKTEKVIFQALKELGLPSGKNDEIEPAAFTYEKFYELTQKICPRTDIEDLFKKINGDKTDYLTVDQLVSFLNEHQRDPRLNEILFPFYDAKRAMQIIEMYEPDEELKKKGLISSDGFCRYLMSDENAPVFLDRLELYQEMDHPLAHYFISSSHNTYLTGRQFGGKSSVEMYRQVLLAGCRCVELDCWDGKGEDQEPIITHGKAMCTDILFKDVIQAIKETAFVTSEYPVILSFENHCSKYQQYKMSKYCEDLFGDLLLKQALESHPLEPGRPLPSPNDLKRKILIKNKRLKPEVEKKQLEALKSMMEAGESAAPASILEDDNEEEIESADQEEEAHPEYKFGNELSADDYSHKEAVANSVKKGLVTVEDEQAWMASYKYVGATTNIHPYLSTMINYAQPVKFQGFHVAEERNIHYNMSSFNESVGLGYLKTHAIEFVNYNKRQMSRIYPKGGRVDSSNYMPQIFWNAGCQMVSLNYQTPDLAMQLNQGKFEYNGSCGYLLKPDFMRRPDRTFDPFSETPVDGVIAATCSVQVISGQFLSDKKIGTYVEVDMYGLPTDTIRKEFRTRMVMNNGLNPVYNEESFVFRKVILPDLAVLRIAVYDDNNKLIGQRILPLDGLQAGYRHISLRNEGNKPLSLPTIFCNIVLKTYVPDGFGDIVDALSDPKKFLSITEKRADQMRAMGIETSDIADVPSDTSKNDKKGKANPAKANVTPQSSSELRPTTTAALGSGQEAKKGIELIPQVRIEDLKQMKAYLKHLKKQQKELNSLKKKHAKEHSTMQKLHCTQVDKIVAQYDKEKSTHEKILEKAMKKKGGSNCLEIKKETEIKIQTLTTDHKSKVKEIVAQHTKEWSEMINTHSAEEQEIRDLHLSQQCELLRKLLINAHEQQTQQLKLSHDRESKEMRAHQAKISMENSKAISQDKSIKNKAERERRVRELNSSNTKKFLEERKRLAMKQSKEMDQLKKVQLEHLEFLEKQNEQAKEMQQMVKLEAEMDRRPATVV | binds |
| Mitotic spindle assembly checkpoint protein MAD1 (protein, UniProt Q9WTX8 1-717) MEDLGENTTVLSSLRSLNNFISQRMEGTSGLDVSTSASGSLQKQYEYHMQLEERAEQIRSKSYLIQVEREKMQMELSHKRARVELERAASTNARNYEREVDRNQELLARIRQLQECEATAEEKMREQLERHRLCKQNLDAVSQQLREQEDSLASAREMISSLKGRVSELQLSAMDQKVQVKRLESEKQELKEQLELQQRKWQEANQKIQELQASQDERAEHEQKIKDLEQKLCLQEQDAAVVKSMKSELMRMPRMERELKRLHEENTHLREMKETNGLLTEELEGLQRKLSRQEKMQEALVDLELEKEKLLAKLQSWENLDQTMGLNLRTPEDLSRFVVELQQRELTLKEKNNSITSSARGLEKVQQQLQDEVRQANAQLLEERKKRETHEALARRLQKRNALLTKERDGMRAILGSYDSELTQTEYSTQLTQRLWEAEDMVQKVHAHSSEMEAQLSQALEELGVQKQRADTLEMELKMLKAQTSSAESSFSFCKEEVDALRLKVEELEGERSRLEQEKQVLEMQMEKLTLQGDYNQSRTKVLHMSLNPISMARQRQHEDHDRLQEECERLRGLVHALERGGPIPADLEAASSLPSSKEVAELRKQVESAELKNQRLKEVFQTKIQEFRKVCYTLTGYQIDVTTESQYRLTSRYAEHQTDCLIFKATGPSGSKMQLLETEFSRSVPELIELHLLQQDSIPAFLSALTIELFSRQTSI | binds |
